This is an account of results in patent US7001748.

Data set [1] concerns the target T1, acyl-ACP4(4) adduct 4c ((2S,3S)-diketide on ACP4(4)), Q03132.
T1 chain: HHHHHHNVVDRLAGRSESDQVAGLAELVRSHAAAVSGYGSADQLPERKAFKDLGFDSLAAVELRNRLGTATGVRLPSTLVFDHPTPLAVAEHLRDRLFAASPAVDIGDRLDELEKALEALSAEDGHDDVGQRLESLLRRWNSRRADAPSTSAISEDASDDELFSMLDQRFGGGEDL

Data set [2] addresses T2, acyl-ACP4(4) adduct 4a ((2S,3R)-diketide on ACP4(4)), Q03132.
T2 chain: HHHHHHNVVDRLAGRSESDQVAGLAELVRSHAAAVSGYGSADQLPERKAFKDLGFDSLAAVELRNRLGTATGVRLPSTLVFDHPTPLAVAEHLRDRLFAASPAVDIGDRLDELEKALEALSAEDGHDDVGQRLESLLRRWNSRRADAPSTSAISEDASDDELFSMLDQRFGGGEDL

Data set [3] has as its target T3, acyl-ACP4(4) adduct 4d ((2R,3R)-diketide on ACP4(4)), Q03132.
T3 chain: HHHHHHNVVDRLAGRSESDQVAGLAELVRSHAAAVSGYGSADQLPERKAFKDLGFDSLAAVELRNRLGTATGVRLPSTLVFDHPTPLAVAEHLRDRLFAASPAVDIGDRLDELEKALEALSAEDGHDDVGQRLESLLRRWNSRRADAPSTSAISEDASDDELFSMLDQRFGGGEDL

Data set [4] addresses T4, acyl-ACP4(4) adduct 4b ((2R,3S)-diketide on ACP4(4)), Q03132.
T4 chain: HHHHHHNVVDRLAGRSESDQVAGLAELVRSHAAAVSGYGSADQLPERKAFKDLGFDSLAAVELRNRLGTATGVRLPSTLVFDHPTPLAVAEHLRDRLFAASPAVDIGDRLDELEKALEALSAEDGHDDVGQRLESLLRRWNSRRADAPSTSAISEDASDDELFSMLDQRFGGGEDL

The target of data set [5] is acyl-ACP4(4) adducts (4), member not specified.

B1: (5)M6+TE (N-ERL-M6+TE; plasmid pRSG54) (protein)
chain: MSGDNGMTEEKLRRYLKRTVTELDSVTARLREVEHRAGEAIVGMACRFPGGVHNPGELWEFIVGGGDAVTEMPTDRGWDLDALFDPDPQRHGTSYSRHGAFLDGAADFDAAFFGISPREALAMDPQQRQVLETTWELFENAGIDPHSVRGSDTGVFLGAAYQGYGQDAVVPEDSEGYLLTGNSSAVVSGRVAYVLGLEGPAVTVDTACSSSLVALHSACGSLRDGDCGLAVAGGVSVMAGPEVFTEFSRQGGLAVDGRCKAFSAEADGFGLPEGVAVVQLQRLSDGPAEGGRQVLGVVAGSAINQDGATNGLAAPSGVAQQRVIRKAWARAGITGADVAVVEAHGTGTRLGDPVEASALLATYGKSRGSSGPVLLGSVKSNIGHAQAAAGVAGVIKVVLGLNRGLVPPMLCRGERSPLIEWSSGGVELAEAVSPWPPAADGVRRAGVSAFGVSGTNAHVIIAEPPEPEPLPEPGPVGVLAAANSVPVLLSARTETALAAQARLLESAVDDSVPLTALASALATGRAHLPRRAALLAGDHEQLRGQLRAVAEGVAAPGATTGTASAGGVVFVFPGQGAQWEGMARGLLSVPVFAESIAECDAVLSEVAGFSASEVLEQRPDAPSLERVDVVQPVLFSVMVSLARLWGACGVSPSAVIGHSQGEIAAAVVAGVLSLEDGVRVVALRAKALRALAGKGGMVSLAAPGERARALIAPWEDRISVAAVNSPSSVVVSGDPEALAELVARCEDEGVRAKTLPVDYASHSRHVEEIRETILADLDGISARRAAIPLYSTLHGERRDMGPRYWYDNLRSQVRFDEAVSAQSPDGHATFVEMSPHPVLTAAVQEIAADAVAIGSLHRDTAEEHLIAELARAHVHGVAVDWRNVFPAAPPVALPNYPFEPQRYWLAPEVSDQLADSRYRVDWRPLATTPVDLEGGFLVHGSAPESLTSAVEKAGGVVPVASADREALAAALREVPGEVAGVLSVHTGAANALALHQSLGEAGVRAPLWLVTSRAVALGESEPVDPEQAMVWGLGRVMGLETPERWGGLVDLPAEPAPGDGEAFVACLGADGHEDQVAIRDHARYGRRLVRAPLGTRESSWEPAGTALVTGGTGALGGHVARHLARCGVEDLVLVSRRGVDAPAAAELEAELVALGPKTTITACDVADREQLSKLLEELRGQGRPVRTVVHTAGVPESRPLHEIGELESVCAAKVTGARLLDELCPDAETFVLFSSGAGVWGSANLGAYSAANAYLDALAHRRRAEGRAATSVAWGAWAGEGMATGDLEGLTRRGLRPMAPDRAIRALHQALDNGDTCVSIADVDWEAFAVGFTAARPRPLLDELVTPAVGAVPAVQAAPAREMTSQELLEFTHSHVAAILGHSSPDAVGQDQPFTELGFDSLTAVGLRNQLQQATGLALPATLVFEHPTVRRLADHIGQQLDSGTPAREASSALRDGYRQAGVSGRVRSYLDLLAGLSDFREHFDGSDGFSLDLVDMADGPGEVTVICCAGTAAISGPHEFTRLAGALRGIAPVRAVPQPGYEEGEPLPSSMAAVAAVQADAVIRTQGDKPFVVAGHSAGALMAYALATELLDRGHPPRGVVLIDVYPPGHQDAMNAWLEELTATLFDRETVRMDDTRLTALGAYDRLTGQWRPRETGLPTLLVSAGEPMGPWPDDSWKPTWPFEHDTVAVPGDHFTMVQEHADAIARHIDAWLGGGNSHHHHHH
Consider B1, for which the “diketide incorporation from acyl-ACP (triketide lactone formation)” value in data set [1] was 4c and 4d were also substrates for the three modules; in data set [2], “Both 4a and 4b were accepted and extended by all three modules”; in data set [3] it was 4c and 4d were also substrates for the three modules; in data set [4], “Both 4a and 4b were accepted and extended by all three modules”.

B2: (5)M5+TE (M5+TE; plasmid pRSG46) (protein)
chain: SGDNGMTEEKLRRYLKRTVTELDSVTARLREVEHRAGEPIAIVGMACRFPGDVDSPESFWEFVSGGGDAIAEAPADRGWEPDPDARLGGMLAAAGDFDAGFFGISPREALAMDPQQRIMLEISWEALERAGHDPVSLRGSATGVFTGVGTVDYGPRPDEAPDEVLGYVGTGTASSVASGRVAYCLGLEGPAMTVDTACSSGLTALHLAMESLRRDECGLALAGGVTVMSSPGAFTEFRSQGGLAADGRCKPFSKAADGFGLAEGAGVLVLQRLSAARREGRPVLAVLAGSAVNQDGASNGLTAPSGPAQQRVIRRALENAGVRAGDVDYVEAHGTGTRLGDPIEVHALLSTYGAERDPDDPLWIGSVKSNIGHTQAAAGVAGVMKAVLALRHGEMPRTLHFDEPSPQIEWDLGAVSVVSQARSWPAGERPRRAGVSSFGISGTNAHVIVEEAPEADEPEPAPDSGPVPLVLSGRDEQAMRAQAGRLADHLAPEPRNSLRDTGFTLATRASAMEHRAVVVGDRDEALAGLRAVADRRIADRTATGQGPNSPRRVAMVFPGQGAQWQGMARDLLRESQVFADSIRDCERALAPHVDWSLTDLLSGARPLDRVDVVQPALFAVMVSLAALWRSHGVEPAAVVGHSQGEIAAAHVAGALTLEDAAKLVAVRSRVLRRLGGQGGMASFGLGTEQAAERIGRFAGALSIASVNGPRSVVVVAGESGPLDELIAECEAEAHKARRIPVDYASHSPQVESLREELLTELAGISPVSADVALYSTTTGQPIDTATMDTAYWYANLREQVRFQDATRQLAEAGFDAFVEVSPHPVLTVGIEATLDSALPADAGACVVGTLRRDRGGLADFHTALGEAYAQGVEVDWSPAFADARPVELPVYPFQRYWLPIPTGGRARDEDDDWRYQVVWREAEWESASLAGRVLLVTGPGVPSELSDAIRSGLEQSGATVLTCDVESRSTIGTALEAADTDALSTVGVAAVPHGEAVDPSLDALALVQALGAAGVEAPLWVLTRNAVQVADGELVDPAQAMVGGLGRVVGIEQPGRWGGLVDLVDADAASIRSLAAVLADPRGEEQVAIRADGIKVARLVPAPARARTHPLEPLAGTVLVTGGTGGIGAHLARWLARSGAEHLVLLGRRGADAPGASELREELTALGTGVTIAACDVADRARLEAVLAAEAAAEGRTVSAVMHAAGVSTSTPLDDLTEAEFTEIADVKVRGTVNLDELCPDLDAFVLFSSNAGVWGSPGLASYAAANAFLDGFARAARSEGAPVTSIAWGLWAGQNMAGDEGGEYLRSQGLRAMDPDRAVEELHITLDHGQTSVSVVDMDRRRFVELFTAARHRPLFDEIAGARAEARQSEEGPALAQRLAALLCDGREREHLAHLIRAEVAAVLGHGDDAAIDRDRAFRDLGFDSMTAVDLRNRLAAVTGVREAATVVFDHPTITRLADHYLERLICCAGTAAISGPHEFTRLAGALRGIAPVRAVPQPGYEEGEPLPSSMAAVAAVQADAVIRTQGDKPFVVAGHSAGALMAYALATELLDRGHPPRGVVLIDVYPPGHQDAMNAWLEELTATLFDRETVRMDDTRLTALGAYDRLTGQWRPRETGLPTLLVSAGEPMGPWPDDSWKPTWPFEHDTVAVPGDHFTMVQEHADAIARHIDAWHHHHHH
For B2, the “diketide incorporation from acyl-ACP (triketide lactone formation)” value in data set [1] was 4c and 4d were also substrates for the three modules; in data set [2] it was “Both 4a and 4b were accepted and extended by all three modules”; in data set [3] it was 4c and 4d were also substrates for the three modules; in data set [4], “Both 4a and 4b were accepted and extended by all three modules”. Moreover, the “conversion of the acyl-ACP into triketide lactone in 1 h (20 µM 4 and 1 µM (5)M5+TE)” value in data set [5] was 70% of the acyl-ACP was converted into triketide lactone in 1 h. In addition, in data set [4], the “increase of the elongation rate constant (kcat) with 4b against NAC thioester 2b” value is on record as “the elongation rate constant (kcat) increases at least 25-fold”.
